According to patent publication US20220153780A1, “SALT FORMS OF S-(N, N-DIETHYLCARBAMOYL)GLUTATHIONE” (Tonix Pharma Holdings Limited, priority 2019, published 2022):
At least one compound was matched to its structure with a doubt left.

Tests used:
[1] = system: C57BL/6J mice; test: Voluntary ethanol intake in chronic intermittent ethanol (CIE) exposed and air-exposed (CTL) mice, limited access drinking; format: in vivo; conditions: for ethanol intake vs vehicle: Test 6 last three days, 125 and 150 mg/kg, averaged over CIE and CTL
Description: Following the established protocol, adult male C57BL/6J mice (N=96) were trained to drink ethanol in a limited access (2 hour/day) free-choice (15% v/v ethanol vs. water) drinking procedure. After four weeks, stable baseline level of intake was established, and mice were separated into two groups. One group of mice (CIE group) was exposed to chronic intermittent ethanol (CIE) vapor exposure in inhalation chambers (16 hour/days x 4 days). The remaining mice (CTL group) were treated similarly but exposed to air in inhalation chambers. After a 72 hour forced abstinence period, all mice resumed ethanol drinking in the same limited access paradigm for a 5-day test period. This pattern of weekly CIE (or air) exposure cycles with intervening weekly test drinking cycles was repeated for seven cycles following procedures previously published (Becker and Lopez, 2004; Griffin et al., 2009; Lopez and Becker, 2005).
All mice received intraperitoneal (IP) administration of saline 30 min prior to the start of daily drinking sessions during baseline and the early test cycles to acclimate the animals to the handling procedure. After the fourth ethanol intake test cycle, mice were further divided into carbamathione dose treatment conditions (N=10-12/group).
After Test 4, CIE and CTL mice were separated in dose groups for Test 5 (N=11-12/group), with the groups equated for intake during Test 4. Mice received intraperitoneal (IP) injections of carbamathione (100, 200 or 400 mg/kg) or vehicle (0.25% carboxymethyl cellulose, CMC in water) 30 min before drinking. The carbamathione IP injections were administered as a suspension. Ethanol intake during Test 5 was averaged for the week and analyzed by ANOVA, with Group (CTL, CIE) and carbamathione dose (0, 100, 200, 400 mg/kg) as between-subject factors. ANOVA indicated a significant main effect of Group [F(1,78)=53.33; p<0.0001], reflecting a higher level of ethanol intake in CIE mice compared to CTL mice (* in FIG. 4).
The efficacy of carbamathione in reducing ethanol intake in mice was next compared to the efficacy of disulfiram, an FDA approved drug used in the treatment of chronic alcoholism. The mice were exposed to a sixth cycle of CIE (or air) and evaluated for intake with the same procedure used in the previous test cycle, except that disulfiram was included as a comparator drug. Mice that received vehicle or 400 mg/kg carbamathione continued with this treatment schedule. […]
Mice were evaluated again for voluntary ethanol intake after a seventh and final CIE or air exposure cycle. […]

[2] = system: nucleus accumbens (NAc) and prefrontal cortex (PFC); conditions: administration of prodrug DSF; compared with carbamathione; cited from earlier work

CCN(CC)C(=S)SSC(=S)N(CC)CC [disulfiram, Disulfiram, reference compound]
ethanol intake vs vehicle, ANOVA treatment effect ([1]; Test 6 first two days, 75 or 100 mg/kg in 0.25% CMC, CIE and CTL mice): did not indicate a significant effect | ethanol intake vs vehicle [1]: lower levels of ethanol intake | ethanol intake vs vehicle ([1]; listed as Disulfiram): reduced ethanol intake | long-lasting effect of previous drug treatment on ethanol intake (washout) ([1]; Test 7, vehicle injections after low or high disulfiram dose in Test 6): did not indicate any long-lasting effect | changes in DA, GABA, and GLu in the NAc and PFC [2]: these same changes
